Data taken from patent US20160033523A1.
Results are given in words; binding and its absence hold for the method and conditions named. Some binding calls cover weakened binding; strength is not graded here.

Amino acid sequences for entries named in this document (tags omitted). A change or cut given only in a name is not applied to a line headed by its entry.
UniProt Q28522: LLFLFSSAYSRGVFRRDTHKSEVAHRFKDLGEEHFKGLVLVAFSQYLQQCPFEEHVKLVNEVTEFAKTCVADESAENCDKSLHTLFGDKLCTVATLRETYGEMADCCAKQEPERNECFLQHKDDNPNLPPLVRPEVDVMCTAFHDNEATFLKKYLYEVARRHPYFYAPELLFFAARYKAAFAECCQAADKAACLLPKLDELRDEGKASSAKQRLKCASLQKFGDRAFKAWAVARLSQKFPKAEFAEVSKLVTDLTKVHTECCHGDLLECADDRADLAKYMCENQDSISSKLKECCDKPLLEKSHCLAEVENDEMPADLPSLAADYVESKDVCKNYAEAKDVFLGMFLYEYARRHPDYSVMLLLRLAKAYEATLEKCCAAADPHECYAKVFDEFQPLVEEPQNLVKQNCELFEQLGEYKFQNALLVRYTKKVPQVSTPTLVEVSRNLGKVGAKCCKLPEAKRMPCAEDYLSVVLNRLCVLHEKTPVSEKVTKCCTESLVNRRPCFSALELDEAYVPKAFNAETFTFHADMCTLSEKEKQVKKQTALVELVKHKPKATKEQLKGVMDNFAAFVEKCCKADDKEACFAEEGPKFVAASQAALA

Experiments:
[1] = target: Soluble rhesus monkey FcRn, GST-tagged, with human beta2-microglobulin (rhesus monkey; Schistosoma japonicum; human) [GST: P08515]; assay: SPR (Biacore), albumin 10-0.3 µM injected over immobilized srmFcRn, pH 6.0
[2] = target: Soluble dog FcRn, GST-tagged, with human beta2-microglobulin (dog; Schistosoma japonicum; human) [GST: P08515]; assay: SPR (Biacore), serial dilutions of albumin injected over immobilized soluble dog FcRn, pH 6.0
[3] = target: Soluble pig FcRn, GST-tagged, with human beta2-microglobulin (Example 2) (pig; Schistosoma japonicum; human) [GST: P08515]; assay: SPR (Biacore), serial dilutions of albumin injected over immobilized soluble pig FcRn, pH 6.0

binding [1]: binds
binding [2]: binds
binding [3]: binds
Substance: Wild type rhesus monkey serum albumin (from UniProt Q28522 17-600) (ligand)
